Results are given in words; binding and its absence hold for the method and conditions named. Binding seen in cells or lysates may run through a third protein. A yes stands for co-enrichment or nearness to the bait. Other partners may have been found.

Amino acid sequences for entries named in this document (tags omitted).
UniProt O54941: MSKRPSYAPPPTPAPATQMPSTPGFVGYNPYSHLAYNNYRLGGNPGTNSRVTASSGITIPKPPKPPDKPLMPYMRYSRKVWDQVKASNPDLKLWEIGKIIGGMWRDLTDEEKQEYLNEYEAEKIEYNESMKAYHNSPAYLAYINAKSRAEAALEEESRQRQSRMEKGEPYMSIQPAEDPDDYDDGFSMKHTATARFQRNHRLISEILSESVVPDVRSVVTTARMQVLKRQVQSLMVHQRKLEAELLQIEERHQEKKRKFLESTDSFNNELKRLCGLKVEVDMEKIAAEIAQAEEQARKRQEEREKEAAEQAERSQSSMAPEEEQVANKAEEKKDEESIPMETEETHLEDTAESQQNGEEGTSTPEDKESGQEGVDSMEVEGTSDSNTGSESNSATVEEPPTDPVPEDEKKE
UniProt O09106: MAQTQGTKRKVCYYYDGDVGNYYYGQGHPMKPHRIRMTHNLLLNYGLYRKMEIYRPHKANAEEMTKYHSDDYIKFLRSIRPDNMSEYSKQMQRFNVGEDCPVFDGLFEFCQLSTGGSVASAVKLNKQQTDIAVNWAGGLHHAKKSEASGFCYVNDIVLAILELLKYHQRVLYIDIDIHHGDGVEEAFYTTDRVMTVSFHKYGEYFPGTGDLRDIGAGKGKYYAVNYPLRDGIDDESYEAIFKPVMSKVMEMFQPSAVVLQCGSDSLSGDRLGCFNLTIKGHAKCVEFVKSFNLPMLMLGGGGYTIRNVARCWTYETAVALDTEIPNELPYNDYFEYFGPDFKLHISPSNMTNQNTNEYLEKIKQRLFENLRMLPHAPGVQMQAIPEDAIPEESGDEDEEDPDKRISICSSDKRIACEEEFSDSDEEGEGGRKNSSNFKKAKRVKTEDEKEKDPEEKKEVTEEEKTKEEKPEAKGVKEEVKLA
UniProt P97496: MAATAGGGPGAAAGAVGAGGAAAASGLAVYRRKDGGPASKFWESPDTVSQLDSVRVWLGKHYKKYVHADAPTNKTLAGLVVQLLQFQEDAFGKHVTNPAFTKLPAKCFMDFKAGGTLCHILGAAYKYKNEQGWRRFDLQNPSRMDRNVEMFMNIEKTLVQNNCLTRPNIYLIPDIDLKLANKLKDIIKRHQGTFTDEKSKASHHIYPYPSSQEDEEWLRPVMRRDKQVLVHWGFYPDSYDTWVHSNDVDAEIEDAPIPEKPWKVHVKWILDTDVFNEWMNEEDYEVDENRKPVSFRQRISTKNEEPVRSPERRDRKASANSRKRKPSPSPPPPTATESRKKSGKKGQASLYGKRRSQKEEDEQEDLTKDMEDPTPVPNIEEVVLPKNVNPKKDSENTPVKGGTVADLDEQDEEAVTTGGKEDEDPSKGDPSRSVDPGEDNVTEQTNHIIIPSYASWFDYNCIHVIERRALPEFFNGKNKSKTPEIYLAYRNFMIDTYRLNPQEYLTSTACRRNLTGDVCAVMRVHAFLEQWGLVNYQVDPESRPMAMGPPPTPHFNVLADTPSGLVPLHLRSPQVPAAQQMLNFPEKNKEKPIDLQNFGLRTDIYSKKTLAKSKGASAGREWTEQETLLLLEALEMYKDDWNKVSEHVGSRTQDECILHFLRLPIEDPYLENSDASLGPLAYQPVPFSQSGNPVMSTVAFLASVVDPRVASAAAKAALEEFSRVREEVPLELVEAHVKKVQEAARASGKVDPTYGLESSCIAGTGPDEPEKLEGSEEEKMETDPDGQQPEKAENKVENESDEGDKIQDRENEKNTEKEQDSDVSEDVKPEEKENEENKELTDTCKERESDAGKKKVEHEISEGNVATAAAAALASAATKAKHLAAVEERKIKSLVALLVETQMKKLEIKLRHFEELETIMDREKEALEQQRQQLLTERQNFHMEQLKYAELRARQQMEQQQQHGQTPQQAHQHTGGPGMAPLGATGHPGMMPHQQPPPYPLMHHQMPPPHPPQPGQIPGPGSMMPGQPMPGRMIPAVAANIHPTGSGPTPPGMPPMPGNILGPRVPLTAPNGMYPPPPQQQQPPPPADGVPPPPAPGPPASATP

This experiment has as its target T1, HSF5 (endogenous, mouse testis) (mouse (endogenous in testis)) (UniProt Q5ND04).
T1 sequence: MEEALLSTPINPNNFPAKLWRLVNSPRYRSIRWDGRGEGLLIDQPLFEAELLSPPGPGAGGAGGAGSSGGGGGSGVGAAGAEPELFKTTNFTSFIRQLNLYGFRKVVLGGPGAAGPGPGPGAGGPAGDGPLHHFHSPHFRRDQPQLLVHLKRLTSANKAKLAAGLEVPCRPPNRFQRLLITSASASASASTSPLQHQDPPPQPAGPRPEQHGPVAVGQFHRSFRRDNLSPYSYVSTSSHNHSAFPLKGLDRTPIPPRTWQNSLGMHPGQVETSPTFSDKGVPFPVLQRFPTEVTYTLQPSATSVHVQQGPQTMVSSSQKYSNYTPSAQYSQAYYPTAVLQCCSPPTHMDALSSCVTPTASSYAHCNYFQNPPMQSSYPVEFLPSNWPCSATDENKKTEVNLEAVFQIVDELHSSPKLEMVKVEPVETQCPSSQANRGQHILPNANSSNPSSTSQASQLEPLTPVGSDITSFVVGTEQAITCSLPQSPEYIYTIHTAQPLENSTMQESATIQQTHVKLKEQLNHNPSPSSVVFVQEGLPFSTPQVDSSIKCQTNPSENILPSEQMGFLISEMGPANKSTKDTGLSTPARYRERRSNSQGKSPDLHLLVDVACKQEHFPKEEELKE
Put plainly: affinity purification with mass spectrometry; endogenous HSF5 immunoprecipitated from mouse testis extracts with anti-HSF5-C, HSF5-N1 and HSF5-N2 antibodies crosslinked to protein A-Dynabeads; control IgG; washed with low salt extraction buffer; LC-MS/MS.
On to SMARCE1 (from UniProt O54941 1-411), for which the binding result is on record as “binds”.
On to HDAC1 (from UniProt O09106 1-482), for which the binding result is listed as “binds”.
As to SMARCC1 (from UniProt P97496 1-1104), the binding result is reported as “binds”.
